Paper PMC12301622
These are yes or no findings as the source states them, for the method shown. In cells and extracts the contact can be indirect. Some binding calls cover weakened binding; strength is not graded here.

Protein sequences, listed by entry. Tags and fused reporters are not part of them.
UniProt Q5XFX0: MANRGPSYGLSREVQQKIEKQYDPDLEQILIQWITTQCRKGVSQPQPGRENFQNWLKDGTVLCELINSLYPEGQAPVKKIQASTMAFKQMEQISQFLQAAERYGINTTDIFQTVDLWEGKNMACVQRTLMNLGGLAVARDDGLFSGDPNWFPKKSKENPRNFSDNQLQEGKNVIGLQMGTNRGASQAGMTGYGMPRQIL

Biological target: T1, CNPase (2',3'-cyclic nucleotide-3'-phosphodiesterase) (rat (endogenous in H9c2)) (UniProt P13233)
T1 sequence: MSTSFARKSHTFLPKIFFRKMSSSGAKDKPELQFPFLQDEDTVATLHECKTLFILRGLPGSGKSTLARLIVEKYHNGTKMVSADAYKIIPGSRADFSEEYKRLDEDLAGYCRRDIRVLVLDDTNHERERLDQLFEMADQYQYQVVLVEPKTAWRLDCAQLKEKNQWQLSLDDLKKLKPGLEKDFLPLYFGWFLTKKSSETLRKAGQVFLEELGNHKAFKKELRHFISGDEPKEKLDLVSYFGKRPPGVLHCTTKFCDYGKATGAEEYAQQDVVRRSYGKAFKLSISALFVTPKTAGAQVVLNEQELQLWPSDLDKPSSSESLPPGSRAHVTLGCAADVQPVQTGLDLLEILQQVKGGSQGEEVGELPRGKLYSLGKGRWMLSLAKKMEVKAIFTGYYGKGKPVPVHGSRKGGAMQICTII
Test: co-IP; H9c2 cell lysate (co-immunoprecipitation kit); TG2 antibody or CNPase antibody or control IgG, protein A and G, 4°C 12 h; Western blot; also after TG2 knock-down (siRNA)

With transgelin2 (from UniProt Q5XFX0 1-199) as the substance, how does the binding read?
The binding was “binds”.
